Source: PMC11876601 (Molecular Systems Biology, 2025)
Where “and” joins values, the source holds several entries; their conditions need not be identical. Identical values can stand only once.

Assays:
[1] = test system: PANC-1 cells; assay: Cell proliferation assay, GEM + ATR inhibitor (Incucyte confluence, 72 h);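 note: PANC-1 confluence at 72 h taken as raw values, not normalized to starting confluence, with each experiment run in triplicate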
[2] = test system: p-sites in DNA-damaged AsPC-1 cells; assay: decryptM dose-resolved phosphoproteomics of ATRi in GEM-pre-treated cells; format: cell-based, human; conditions: 1 µM GEM 3 h, then ATRi 1 nM-10 µM 1 h
Procedure: (§1) Cell culture medium was replaced 24 h after seeding. […] For time point 0, AsPC-1 cells were treated with a vehicle and lysed immediately. The final DMSO concentration in all experiments was 0.2%.
(§2) Briefly, cells were washed twice with PBS and lysed in SDS lysis buffer (2% SDS in 40 mM Tris-HCl, pH 7.6), followed by sonication for 10 min (30 s on/30 s off) using a Bioruptor (Diagenode). For DNA hydrolysis, samples were boiled at 95 °C for 10 min and incubated with 2% trifluoroacetic acid (TFA) for 1 min, before the reaction was quenched using 4% N-methylmorpholine. Lysate was cleared by centrifugation at 11,000 × g for 5 min and protein concentration was determined using the Pierce BCA Protein Assay Kit (Thermo Scientific).
(§3) Using 70% ethanol, samples were then precipitated on beads, followed by washing thrice with 80% ethanol and once with 100% acetonitrile. Subsequently, proteins were reduced and alkylated using 10 mM TCEP, 50 mM chloroacetamide, and 2 mM CaCl2 in 100 mM EPPS/NaOH, pH 8.5 for 1 h at 37 °C, followed by tryptic digestion at 37 °C for 16 h. Peptides were acidified with 1% TFA and desalted on Chromabond HLB plates (30 µm particle size, 10 mg capacity, Machery-Nagel), using 0.1% TFA for equilibration and sample loading, and 0.1% TFA in 70% acetonitrile for peptide elution. Recovered peptides were freeze-dried by vacuum-centrifugation and stored at −20 °C.
Depending on the experiment, samples were either labeled with TMT-11plex (decryptM), TMT-10plex (non-decryptM, quadruplicates), or TMTpro reagent (time-series; all Thermo Scientific). Therefore, dried peptides were reconstituted in 15 µl 100 mM EPPS, pH 8.5 and each treatment condition was labeled with one channel of the respective TMT reagent (5 µl of 25 µg/µl reagent, Appendix Tables S4–S6). The reaction was incubated for 1 h at 23 °C and subsequently quenched with 0.4% hydroxylamine. Then, samples were pooled, acidified with 1% formic acid, and freeze-dried by vacuum-centrifugation. […]

[3] = test system: Suit2-07 cells; assay: Cell proliferation assay, GEM + ATR inhibitor (Incucyte confluence, 72 h); format: cell-based, human;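 note: Suit2-07 cells grown in 96-well plates at 37 °C, 5% CO2, raw 72 h confluence taken without normalizing to starting confluence, each experiment done in triplicate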
[4] = test system: p-sites in AsPC-1 cells; assay: Phosphoproteomics 1 µM GEM vs. vehicle (4 h); format: cell-based, human; conditions: 1 µM GEM vs. untreated
Procedure: as §1, §2, §3
Depending on the experiment, samples were either labeled with TMT-11plex (decryptM), TMT-10plex (non-decryptM, quadruplicates), or TMTpro reagent (time-series; all Thermo Scientific). Therefore, dried peptides were reconstituted in 15 µl 100 mM EPPS, pH 8.5 and each treatment condition was labeled with one channel of the respective TMT reagent (5 µl of 25 µg/µl reagent, Appendix Tables S4–S6). The reaction was incubated for 1 h at 23 °C and subsequently quenched with 0.4% hydroxylamine. Then, samples were pooled, acidified with 1% formic acid, and freeze-dried by vacuum-centrifugation. Labeled peptide pools were desalted on C18 Sep-Pak cartridges (37–55 µm particle size, 50 mg capacity, Waters), using 0.1% formic acid as equilibration solvent, and 0.1% formic acid in 60% acetonitrile was used as elution solvent. Eluted peptides were freeze-dried and stored at −20 °C until further use.
Basic reversed-phase (bRP) fractionation of peptides was performed on a Vanquish HPLC (Thermo Scientific). In short, dried peptides were reconstituted in 200 µl 25 mM ammonium bicarbonate, pH 8.0 and directly injected onto a Waters BEH130 XBridge C18 column (3.5 µm, 4.6 × 250 mm). […] Using an automated fraction collector, 96 fractions were collected between min 7 and 55 after injection. Fractions were acidified with 1% formic acid and pooled to 48 fractions, before they were freeze-dried and stored at −20 °C. […]

[5] = experiment ATRi (ATR inhibitor alone), slope of fitted dose-response curve
[6] = experiment GEM+ATRi_dose1, slope of fitted dose-response curve
[7] = experiment GEM+ATRi_dose2, slope of fitted dose-response curve
[8] = experiment GEM+ATRi_dose3, slope of fitted dose-response curve

SMILES	Curve slope [1, 5]	Curve slope [1, 6]	Curve slope [1, 7]	Curve slope [1, 8]	number of dose-dependently regulated p-sites [2]	Curve slope [3, 5]	Curve slope [3, 6]	Curve slope [3, 7]	Curve slope [3, 8]	number of down-regulated p-peptides [4]	number of regulated pSQ/pTQ motif sites [4]	number of up-regulated p-peptides [4]	number of statistically significant GEM-regulated p-peptides ([4]; adjusted p < 0.01, log2 FC > 1)	Curve slope ([3]; experiment GEM (GEM alone), slope of fitted dose-response curve)
CNCc1ccc(-c2cc(-c3nc(-c4ccc(S(=O)(=O)C(C)C)cc4)cnc3N)on2)cc1 [Berzosertib]	1.03 and 1.14	2.25 and 1.73	3.31 and 2.16	2.04 and 2.65	840	2.00	3.50	3.29	2.34					
C[C@@H]1COCCN1c1cc(C2([S@](C)(=N)=O)CC2)nc(-c2cc[nH]c3nccc2-3)n1 [Ceralasertib]					421	1.85	4.92	3.51	2.88					
Nc1ccn([C@@H]2O[C@H](CO)[C@@H](O)C2(F)F)c(=O)n1 [GEM, Gemcitabine]										198	135	216	414	2.44 and 2.30 and 1.96 and 2.05
Nc1nn2cc(F)cnc2c1C(=O)Nc1cncc(F)c1N1CCC(C(=O)N2CCN(C3COC3)CC2)CC1 [Gartisertib]	1.65 and 1.57 and 0.94	3.05 and 3.59 and 1.87	2.88 and 1.50 and 2.63	3.22 and 3.21 and 2.91	1015	2.18	3.55	8.53	3.33					
